Results reported in article PMC10163288.
This is one part of the list.

B1: il2ra_site2_2erj_sap_25_mot_HHH_b2_07139_000000086_0001_40_57_H_._HHH_b1_02157_af2_0001_0000200030_0000001_0_0001_af2pred_0001_af2pred (protein)
chain: SSSSSSDHEEEVERLLEEAKHTPDLHEALKLLQEADQIAVENENDELLELVQKILRELSSSSSSS
B2: il2ra_site2_3nfp_normal_mot_HHH_b1_05627_af2_000000038_0001_43_56_H_._HHH_b1_04379_0001_0000100004_0000001_0 (protein)
chain: SSSSDKREEYLEAALLTLEEAIRFGDEEVVERLIQAIEEAAEAARDEEIEERLRKLEEEFSSSSS
B3: il2ra_site2_2erj_sap_16_mot_HHH_b1_00449_000000059_0001_39_52_H_._HHH_b1_03513_0001_0000400032_0000001_0_0001_af2pred_0001_1_af2pred_swapped (protein)
chain: DDAERAVRHALEWAIKYNDPDAFKTALRLAEWMLGDPEEARELLRELLEKLVPPEEVEEIEELLK
B4: il2ra_site1_3nfp_sap_9_mot_HHH_b2_00128_000000255_0001_39_54_H_._HHH_b2_00952_0001_0000300007_0000001_1_0001_af2pred_0001_af2pred_1 (protein)
chain: SSSSTEENRRAVELSRRILELLKEGDDEEAEELLKELEELAEKANDPVMKLFVERLERRLRSSSS
B5: il2ra_site2_2erj_normal_mot_c2bf78bdce995293a161f7082e24b401_0001_af2_000000082_0001_17_32_H_._HHH_b1_00942_af2_0001_0000200020_0000001_0 (protein)
chain: SSSSNEKLKELYRLANELLRLVFEGDEEKFEEVFQELERLIEELDSKSAREILEQLRRLLHSSSS
B6: il2ra_site2_2erj_normal_mot_678ce523d3521e26f84bf18760a59296_0001_000000113_0001_1_12_H_._HHH_b2_02924_af2_0001_0000200006_0000001_0_af2pred_0001_1_af2pred_swap … (protein)
chain: SSSSSSHVEEIAQRLAEEAEELGDKELAELALEIALRFARAAGDEEAEREIEELIEEVRGSSSSS
B7: il2ra_site1_2b5i_sap_21_mot_HHH_b1_01165_af2_000000109_0001_42_55_H_._9e027cdb5f26361229cf46a28aff2188_0001_1_af2_0001_0000600023_0000001_0_0001_af2pred_0001_af … (protein)
chain: SSSSDEKEEALELFRKAQELLENGNPEEAEEVLEKAAEIAEEAGNRSLLRAIEWALEQFESSSSS
B8: il2ra_site2_3nfp_sap_19_mot_HHH_b2_02902_af2_000000043_0001_44_57_H_._HHH_b1_07323_af2_0001_0000100005_0000001_0_0001_af2pred_0001_af2pred (protein)
chain: SSSSDAEEEIKELLEKVEELLKEGDPEEAERLLKRVAKLVRELGDFELFHLVLELRRKVESSSSS
B9: il2ra_site1_1z92_sap_30_mot_HHH_b1_07156_000000060_0001_21_38_H_._43642e40158d6d50ca32f4d9c2045359_0001_0001_0000100001_0000001_0_0001 (protein)
chain: SSSSTEEALEYIEEMVRLKFELAERTNDERARELIEFLLRQAKLAGDPELAEEIEELLERLSSSS
B10: il2ra_site2_3nfp_normal_mot_HHH_b2_07129_000000128_0001_19_36_H_._HHH_b1_08270_0001_0001000010_0000001_0_af2pred_0001_1_af2pred_swapped (protein)
chain: SSSSDIEERILELLRRAKELYENGNPEEARKLIEEAEELAEELNDEEIRFLVKVALRELRLSSSS
B11: il2ra_site2_2erj_normal_mot_HHH_b1_01239_000000175_0001_43_57_H_._HHH_b2_04847_0001_0000100005_0000001_0_af2pred_0001_1_af2pred_swapped (protein)
chain: SSSSSSEEVEERIRELLERAEKIPDLREALELLQEASELAAELNDPELIELVTEVARRLSSSSSS
B12: il2ra_site1_3nfp_sap_16_mot_HHH_b1_01335_af2_000000258_0001_39_53_H_._a46e32ff5abe01017c5ab207d099328f_0001_1_af2_0001_0000200010_0000001_0_0001_af2pred_0001_af … (protein)
chain: SSSSSSDLEVAKIVIELAEEFNLDNELSRELIHLAAKLRLRGVSEEEIEEILREVAKELSSSSSS
B13: il2ra_site2_2erj_sap_25_mot_ems_p1-14H-GABBL-16H-GABBL-15H_0014_0001_0001_0001_000000124_0001_40_55_H_._HHH_b1_02157_af2_0002_0000100014_0000001_0_0001_af2pred_ … (protein)
chain: SSSDREEVAERVVEELVEELGLDERAKNLLEALARHLIELGASPEEIEKILEESARSAKEALSSS
B14: il2ra_site2_2erj_sap_19_mot_HHH_b2_02303_000000050_0001_43_56_H_._HHH_b2_02338_0001_0000200012_0000001_0_0001 (protein)
chain: SSSSNEELHELYELANELLRLVHEGDEEQFERVFEELERLIEKLDSRTARRILEWLRRHLHSSSS
B15: il2ra_site2_3nfp_normal_mot_HHH_b1_03818_000000217_0001_1_20_H_._HHH_b1_03372_af2_0001_0000400021_0000001_0 (protein)
chain: SSSSDEEKLEELEEEIKKLIEEGDKYEVFELVAELSELAARLQDEEAAEFVIEVYKWLKGSSSSS
B16: il2ra_site2_3nfp_sap_24_mot_HHH_b1_03818_000000217_0001_1_20_H_._HHH_b1_04518_af2_0001_0000400014_0000001_0_0001 (protein)
chain: SEKDLIEMSLEMIKAHALLHGNEEVQEIVEELERLLEEAKRKNDEELREEVAERAAELIERVLES
B17: il2ra_site2_3nfp_sap_12_mot_HHH_b1_03213_af2_000000225_0001_42_59_H_._HHH_b2_01792_0001_0000600042_0000001_0_0001_af2pred_0001_af2pred (protein)
chain: SSSSSDEEERERVEELLEEAKHIEDEFELFAVLADALEIALRLEDPELEELVRRVARELRSSSSS
B18: il2ra_site2_2erj_normal_mot_HHH_b2_04740_af2_000000163_0001_42_55_H_._ems_3hM_441_0001_0000400022_0000001_0 (protein)
chain: DEELEELIEELLEILEELLRENPEAVQMVRRAAKEAKKAVKNGDEELAEELVRVLEKFVRFLEES

biological target: il2ra, P01589; assay: yeast display titration

Binder	apparent Kd
B1	inactive: no binding seen
B2	inactive: no binding seen
B3	inactive: no binding seen
B4	inactive: no binding seen
B5	inactive: no binding seen
B6	inactive: no binding seen
B7	inactive: no binding seen
B8	inactive: > 650 nM
B9	inactive: no binding seen
B10	inactive: no binding seen
B11	inactive: no binding seen
B12	inactive: no binding seen
B13	inactive: no binding seen
B14	inactive: no binding seen
B15	inactive: no binding seen
B16	inactive: no binding seen
B17	inactive: no binding seen
B18	inactive: no binding seen

Fetched one by one from the entries so far, two records:
Binder	apparent Kd
B12	inactive: no binding seen
B1	inactive: no binding seen
